These are yes or no findings as the source states them, for the method shown. Some binding calls cover weakened binding; strength is not graded here. For some assays here: Sequences can lack the tags named with a protein.
What was measured:
[1] = molecular target: T1, long-neurotoxin-krait (bungarus) (alpha-bungarotoxin) (krait (Bungarus caeruleus)) (UniProt D2N116); test: Biacore and Octet HTX kinetics assays
T1 sequence: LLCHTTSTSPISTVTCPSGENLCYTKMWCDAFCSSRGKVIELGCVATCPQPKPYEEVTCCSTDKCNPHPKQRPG

[2] = molecular target: T2, long-neurotoxin-taipan, recombinant, Taipan-Avi-His (coastal taipan (Oxyuranus scutatellus)) (UniProt A8HDK9); test: Biacore and Octet HTX kinetics assays
T2 sequence: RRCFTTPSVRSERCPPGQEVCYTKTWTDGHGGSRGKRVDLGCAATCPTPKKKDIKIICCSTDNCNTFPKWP

B1: SNEURO_P01_B11 (antibody, V domains shown)
VH: QVQLQESGGGLVQPGGSLRLSCAASGFTFSNFDMHWVRQSPGKGLEWVSGLDHSGGAHYAGSVKGRFTISREDAKNSLDLQMNNLRVDDTAVYFCVRGTLYHYTSGSYYSDAFDIWGQGTLVTVSS
VL: DIVMTQSPSSLSASVGDRVTITCRASQGISDNLNWYQQKPGKAPKLLIYAASTLQSGVPSRLSGSGSGTDFTLTISSLQPEDFATYYCQQANSFPLTFGGGTKVEIKR
In the case of B1, the binding [1] is reported as “binds” and the binding [2] is reported as “binds”.

Reference: patent publication US20240294618A1 (CENTIVAX, published 2024)
